Screening data, single-dose tests

T. brucei: 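Whole-parasite assay of Trypanosoma brucei over 72 hours; the read-out is not stated. Concentration: 30 µM. Direction is inferred from retests: higher values go with stronger inhibition. Values scatter widely below zero; nearly all retest evidence comes from the higher of the two concentrations used. About 64,000 compounds were tested under these conditions; 1.5% (about 940) showed 50% or more at least once.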
Leishmania in macrophages: 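Cell assay of Leishmania donovani living inside macrophages; the read-out is not stated. Compounds at 30 µM. The record gives no direction; compounds that gave an IC50 in retests scored well above the rest, so higher reads as stronger inhibition. About 69,000 compounds were tested under these conditions; 1.5% (about 1,000) showed 50% or more at least once.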

The filed quantity is “Percent Effect” (%).
The controls that fix the scale are not given in the record; negative values are as filed.
Compounds were drawn at random from those tested, without regard to their results.
Two or more numbers in one place are separate tests of the same structure; such repeats can differ widely.

* COc1cc(NC(=O)NC2CCCC2)ccc1N1CCOC1=O | T. brucei: -4.637%; Leishmania in macrophages: -6.514%
* O=C(O)C(F)(F)F.O=C1CC[C@]2(CC[C@@H](NC3CCOC3)CC2)N1Cc1ccccc1 (stereo not given in full) | T. brucei: -20.1%; Leishmania in macrophages: -17.85%
* CCc1nccn1C1CCCN(C(=O)c2ccc(OC)c(OC)c2)C1 (stereo not given) | T. brucei: -12.56%; Leishmania in macrophages: -25.2%
* COc1ccc(C2SCC(=O)N2c2ncc(C)s2)cc1 (stereo not given) | T. brucei: -15.29%; Leishmania in macrophages: 22.16%
* CC(CNC(=O)N1CCN(Cc2ccon2)CC1)N(C)C1CC1 (stereo not given) | T. brucei: 18.22%; Leishmania in macrophages: 3.223%
* O=C(Cn1ccc2sccc2c1=O)NCc1ccccc1F | T. brucei: 1.93%; Leishmania in macrophages: -22.12%
* CN(C)C(=O)CNC(=O)CCn1ncc2c(Cl)cccc21 | T. brucei: 28.55%; Leishmania in macrophages: 13.94%
* CCOc1ncccc1CNCc1c(C)nn(C)c1N(C)C | T. brucei: -1.13%; Leishmania in macrophages: 5.91%
* CCc1nc(C2CCCN2Cc2cnc(C)cn2)no1 (stereo not given) | T. brucei: 8.419%; Leishmania in macrophages: 24.04%
* Cc1cnn(CC2CN(Cc3csc(C4CCCC4)n3)CCO2)c1 (stereo not given) | T. brucei: -1.001%; Leishmania in macrophages: 6.631%
* CC(C)C(=O)NC1CCCN(C(=O)c2cc(Cl)ccc2O)C1 (stereo not given) | T. brucei: -2.517%; Leishmania in macrophages: -7.63%
* CC(=O)c1ccc(N2CCN(C(=O)NC(C)c3ccc(C)o3)CC2)cc1 (stereo not given) | T. brucei: 19.85%; Leishmania in macrophages: 22.8%
* Cn1ccnc1C(=O)N1CCCC1c1ccc(C(=O)N2CCOCC2)s1 (stereo not given) | T. brucei: -104%; Leishmania in macrophages: -11.98%
* O=c1[nH]nc2nc(N3CCOCC3)ccn12 | T. brucei: -22.91%; Leishmania in macrophages: 17.34%
* Cc1cc(C)n(C2CCCN(C(=O)CCCNc3ncccn3)C2)n1 (stereo not given) | T. brucei: 12.29%; Leishmania in macrophages: -5.146%
* CC(=O)Nc1nc(C2CCN(CC(N)=O)CC2)cs1 | T. brucei: -4.816%; Leishmania in macrophages: 4.176%
* [H][C@]12CCN(Cc3cccc(C)n3)[C@@]1([H])C[C@H](C(=O)N1CCN(C)CC1)O2 | T. brucei: -14.43%; Leishmania in macrophages: 12.64%
* O=C(c1cc(F)ccc1Br)N1CCN(C(=O)C2CC2)CC1 | T. brucei: -7.233%; Leishmania in macrophages: -33.26%
* CCc1ccccc1OCC(=O)N1CCOCC1c1ncon1 (stereo not given) | T. brucei: -50.08%; Leishmania in macrophages: -16.62%
* CCC1CCc2c(c3ccccc3[nH]c2=O)O1 (stereo not given) | T. brucei: -17.89%; Leishmania in macrophages: 14.71%
* Cc1ccc(NC2CCN(C(=O)c3c(C)oc(C)c3C)CC2)nn1 | Leishmania in macrophages: 30.2%
* CCC(C)N(C)S(=O)(=O)c1ccc(CCNC(C)=O)s1 (stereo not given) | T. brucei: 21.89%; Leishmania in macrophages: 13.34%
* Cn1c(=O)oc2ccc(NC(=O)N3CCc4ccccc4C3)cc21 | T. brucei: -25.71%; Leishmania in macrophages: 25.24%
* CCc1noc(C)c1C(=O)NCc1cc[nH]n1 | T. brucei: -17.88%; Leishmania in macrophages: 20.18%
* Cc1cccc(C(=O)N2CCCCC2c2[nH]ncc2S(C)(=O)=O)c1 (stereo not given) | T. brucei: -1.429%; Leishmania in macrophages: 4.157% and 18.29%
* CC(C)c1nnc2n1CCN(Cc1nc(-c3ccoc3)no1)C2 | T. brucei: 2.097%; Leishmania in macrophages: 18.09%
* CSc1cccc(CC(=O)N[C@@H]2CCNC[C@H]2O)c1 | T. brucei: -75.66%; Leishmania in macrophages: 39.36%
* COC1CCN(CC(=O)NCc2ccc(OCC(N)=O)cc2)CC1 | T. brucei: -12.56%; Leishmania in macrophages: 1.898%
* O=C(CCN1CCc2[nH]nc(C(F)(F)F)c2C1)Nc1ccccc1 | T. brucei: -26.3%; Leishmania in macrophages: 14.66%
* O=C(O)C(F)(F)F.[H][C@@]12CN(C(=O)C3CCOCC3)C[C@@]1([H])N(Cc1ccncc1)C(=O)CO2 | T. brucei: 19.53%; Leishmania in macrophages: 28.49%
* COc1cc(CO)ccc1OCc1nc(C2CC2)no1 | T. brucei: -16.12%; Leishmania in macrophages: 13.25%
* O=C(c1cnc(-c2cccs2)s1)N1CCCC(n2cccn2)C1 (stereo not given) | T. brucei: -20.89%; Leishmania in macrophages: -9.696%
* O=C(O)C(F)(F)F.[H][C@@]12CN(C(=O)NC(C)C)C[C@]1([H])C(=O)N(Cc1cccc(C)n1)C2 | T. brucei: -18.44%; Leishmania in macrophages: -1.642%
* COC(=O)c1sc2cccc(F)c2c1CNC(=O)C1CC1 | T. brucei: 6.725%; Leishmania in macrophages: -5.205%
* Cc1noc(C)c1C(=O)NCCN1CCOCC1 | T. brucei: -8.427%; Leishmania in macrophages: 21.11%
* Cc1nc(CN2CCCC(N(C)Cc3cscn3)C2)no1 (stereo not given) | T. brucei: 106.7%; Leishmania in macrophages: -38.75%
* CCN(C(=O)Cc1ccc(NC(=O)NC2CC2)cc1)c1ccccc1 | T. brucei: 18.42%; Leishmania in macrophages: -5.869%

Measurements from “University of Dundee, Small-Polar-MMV Screening Library” (2021), ChEMBL document CHEMBL3988442.